These are yes or no findings as the source states them, for the method shown. Binding seen in cells or lysates may run through a third protein. Some results given as binding are weak or reduced against the parent protein; the word gives no strength.
Target: histidine triad nucleotide-binding protein 3 (HINT3) (human (endogenous in HPAECs)) (UniProt Q9NQE9)
Assay: co-IP; HPAEC lysates (1 mg) incubated with anti-HINT3 antibody (or control IgG) overnight at 4 °C, protein A/G agarose 2 h at 4 °C, washed three times with cold PBS-T (PBS + 1% Triton), immunoblotted

The chains behind the UniProt entries cited, without tags or fusion partners.
UniProt Q9NQE9: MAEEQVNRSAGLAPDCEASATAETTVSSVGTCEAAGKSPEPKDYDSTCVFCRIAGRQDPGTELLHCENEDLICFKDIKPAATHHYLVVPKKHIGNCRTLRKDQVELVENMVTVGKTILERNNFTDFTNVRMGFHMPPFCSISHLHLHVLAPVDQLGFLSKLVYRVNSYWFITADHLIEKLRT
UniProt P51784: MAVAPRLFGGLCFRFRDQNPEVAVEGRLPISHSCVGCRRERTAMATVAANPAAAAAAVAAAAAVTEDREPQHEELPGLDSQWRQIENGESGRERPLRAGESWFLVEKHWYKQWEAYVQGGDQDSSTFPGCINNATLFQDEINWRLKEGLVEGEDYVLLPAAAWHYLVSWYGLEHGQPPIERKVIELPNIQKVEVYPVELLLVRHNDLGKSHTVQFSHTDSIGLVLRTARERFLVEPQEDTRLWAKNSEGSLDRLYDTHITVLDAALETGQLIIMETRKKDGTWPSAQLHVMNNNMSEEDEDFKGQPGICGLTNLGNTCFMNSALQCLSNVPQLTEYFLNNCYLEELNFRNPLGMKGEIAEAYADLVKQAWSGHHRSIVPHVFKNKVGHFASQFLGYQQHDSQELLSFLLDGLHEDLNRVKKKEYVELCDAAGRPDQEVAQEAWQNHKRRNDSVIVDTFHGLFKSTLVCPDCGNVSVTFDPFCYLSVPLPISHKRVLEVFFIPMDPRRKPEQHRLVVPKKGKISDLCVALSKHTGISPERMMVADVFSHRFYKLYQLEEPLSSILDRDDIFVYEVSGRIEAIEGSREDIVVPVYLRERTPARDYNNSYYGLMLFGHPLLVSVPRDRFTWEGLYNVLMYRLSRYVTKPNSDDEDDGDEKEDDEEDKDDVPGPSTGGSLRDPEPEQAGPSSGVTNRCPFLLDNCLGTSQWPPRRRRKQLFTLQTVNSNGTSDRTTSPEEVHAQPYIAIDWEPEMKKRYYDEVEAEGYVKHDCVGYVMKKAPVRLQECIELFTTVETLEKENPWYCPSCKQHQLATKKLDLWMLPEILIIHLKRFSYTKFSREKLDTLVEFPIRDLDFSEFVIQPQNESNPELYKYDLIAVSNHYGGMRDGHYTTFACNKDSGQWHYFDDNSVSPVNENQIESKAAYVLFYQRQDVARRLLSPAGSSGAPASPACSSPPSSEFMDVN
UniProt P10415: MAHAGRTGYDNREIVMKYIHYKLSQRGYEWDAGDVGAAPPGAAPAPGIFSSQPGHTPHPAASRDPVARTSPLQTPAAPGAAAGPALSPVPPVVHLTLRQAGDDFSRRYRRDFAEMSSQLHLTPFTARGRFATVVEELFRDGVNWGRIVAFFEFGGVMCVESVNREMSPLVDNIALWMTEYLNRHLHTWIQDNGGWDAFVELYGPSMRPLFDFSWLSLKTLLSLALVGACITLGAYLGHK

Row | binding | Substance
1 | binds | ubiquitin-specific protease 11 (USP11) (from UniProt P51784 1-963) (enzyme)
2 | binds | B-cell lymphoma 2 (BCL2) (from UniProt P10415 1-239)

Reference: PMC12080269
